Laboratory results from the supplement of paper PMC12067093, “Discovery and optimisation of a covalent ligand for TRIM25 and its application to targeted protein ubiquitination” (Chemical Science, 2025).
Some of the results follow.

Amino acid sequences for entries named in this document (tags omitted). A change or cut given only in a name is not applied to a line headed by its entry.
UniProt Q9H3R5: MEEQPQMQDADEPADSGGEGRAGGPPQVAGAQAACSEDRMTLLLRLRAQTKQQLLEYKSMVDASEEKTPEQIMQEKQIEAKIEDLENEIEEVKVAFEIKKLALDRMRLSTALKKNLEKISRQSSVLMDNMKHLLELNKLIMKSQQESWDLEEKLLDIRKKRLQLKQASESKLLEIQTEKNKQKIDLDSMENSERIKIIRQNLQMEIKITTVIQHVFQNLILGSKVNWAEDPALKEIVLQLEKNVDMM
UniProt P49454: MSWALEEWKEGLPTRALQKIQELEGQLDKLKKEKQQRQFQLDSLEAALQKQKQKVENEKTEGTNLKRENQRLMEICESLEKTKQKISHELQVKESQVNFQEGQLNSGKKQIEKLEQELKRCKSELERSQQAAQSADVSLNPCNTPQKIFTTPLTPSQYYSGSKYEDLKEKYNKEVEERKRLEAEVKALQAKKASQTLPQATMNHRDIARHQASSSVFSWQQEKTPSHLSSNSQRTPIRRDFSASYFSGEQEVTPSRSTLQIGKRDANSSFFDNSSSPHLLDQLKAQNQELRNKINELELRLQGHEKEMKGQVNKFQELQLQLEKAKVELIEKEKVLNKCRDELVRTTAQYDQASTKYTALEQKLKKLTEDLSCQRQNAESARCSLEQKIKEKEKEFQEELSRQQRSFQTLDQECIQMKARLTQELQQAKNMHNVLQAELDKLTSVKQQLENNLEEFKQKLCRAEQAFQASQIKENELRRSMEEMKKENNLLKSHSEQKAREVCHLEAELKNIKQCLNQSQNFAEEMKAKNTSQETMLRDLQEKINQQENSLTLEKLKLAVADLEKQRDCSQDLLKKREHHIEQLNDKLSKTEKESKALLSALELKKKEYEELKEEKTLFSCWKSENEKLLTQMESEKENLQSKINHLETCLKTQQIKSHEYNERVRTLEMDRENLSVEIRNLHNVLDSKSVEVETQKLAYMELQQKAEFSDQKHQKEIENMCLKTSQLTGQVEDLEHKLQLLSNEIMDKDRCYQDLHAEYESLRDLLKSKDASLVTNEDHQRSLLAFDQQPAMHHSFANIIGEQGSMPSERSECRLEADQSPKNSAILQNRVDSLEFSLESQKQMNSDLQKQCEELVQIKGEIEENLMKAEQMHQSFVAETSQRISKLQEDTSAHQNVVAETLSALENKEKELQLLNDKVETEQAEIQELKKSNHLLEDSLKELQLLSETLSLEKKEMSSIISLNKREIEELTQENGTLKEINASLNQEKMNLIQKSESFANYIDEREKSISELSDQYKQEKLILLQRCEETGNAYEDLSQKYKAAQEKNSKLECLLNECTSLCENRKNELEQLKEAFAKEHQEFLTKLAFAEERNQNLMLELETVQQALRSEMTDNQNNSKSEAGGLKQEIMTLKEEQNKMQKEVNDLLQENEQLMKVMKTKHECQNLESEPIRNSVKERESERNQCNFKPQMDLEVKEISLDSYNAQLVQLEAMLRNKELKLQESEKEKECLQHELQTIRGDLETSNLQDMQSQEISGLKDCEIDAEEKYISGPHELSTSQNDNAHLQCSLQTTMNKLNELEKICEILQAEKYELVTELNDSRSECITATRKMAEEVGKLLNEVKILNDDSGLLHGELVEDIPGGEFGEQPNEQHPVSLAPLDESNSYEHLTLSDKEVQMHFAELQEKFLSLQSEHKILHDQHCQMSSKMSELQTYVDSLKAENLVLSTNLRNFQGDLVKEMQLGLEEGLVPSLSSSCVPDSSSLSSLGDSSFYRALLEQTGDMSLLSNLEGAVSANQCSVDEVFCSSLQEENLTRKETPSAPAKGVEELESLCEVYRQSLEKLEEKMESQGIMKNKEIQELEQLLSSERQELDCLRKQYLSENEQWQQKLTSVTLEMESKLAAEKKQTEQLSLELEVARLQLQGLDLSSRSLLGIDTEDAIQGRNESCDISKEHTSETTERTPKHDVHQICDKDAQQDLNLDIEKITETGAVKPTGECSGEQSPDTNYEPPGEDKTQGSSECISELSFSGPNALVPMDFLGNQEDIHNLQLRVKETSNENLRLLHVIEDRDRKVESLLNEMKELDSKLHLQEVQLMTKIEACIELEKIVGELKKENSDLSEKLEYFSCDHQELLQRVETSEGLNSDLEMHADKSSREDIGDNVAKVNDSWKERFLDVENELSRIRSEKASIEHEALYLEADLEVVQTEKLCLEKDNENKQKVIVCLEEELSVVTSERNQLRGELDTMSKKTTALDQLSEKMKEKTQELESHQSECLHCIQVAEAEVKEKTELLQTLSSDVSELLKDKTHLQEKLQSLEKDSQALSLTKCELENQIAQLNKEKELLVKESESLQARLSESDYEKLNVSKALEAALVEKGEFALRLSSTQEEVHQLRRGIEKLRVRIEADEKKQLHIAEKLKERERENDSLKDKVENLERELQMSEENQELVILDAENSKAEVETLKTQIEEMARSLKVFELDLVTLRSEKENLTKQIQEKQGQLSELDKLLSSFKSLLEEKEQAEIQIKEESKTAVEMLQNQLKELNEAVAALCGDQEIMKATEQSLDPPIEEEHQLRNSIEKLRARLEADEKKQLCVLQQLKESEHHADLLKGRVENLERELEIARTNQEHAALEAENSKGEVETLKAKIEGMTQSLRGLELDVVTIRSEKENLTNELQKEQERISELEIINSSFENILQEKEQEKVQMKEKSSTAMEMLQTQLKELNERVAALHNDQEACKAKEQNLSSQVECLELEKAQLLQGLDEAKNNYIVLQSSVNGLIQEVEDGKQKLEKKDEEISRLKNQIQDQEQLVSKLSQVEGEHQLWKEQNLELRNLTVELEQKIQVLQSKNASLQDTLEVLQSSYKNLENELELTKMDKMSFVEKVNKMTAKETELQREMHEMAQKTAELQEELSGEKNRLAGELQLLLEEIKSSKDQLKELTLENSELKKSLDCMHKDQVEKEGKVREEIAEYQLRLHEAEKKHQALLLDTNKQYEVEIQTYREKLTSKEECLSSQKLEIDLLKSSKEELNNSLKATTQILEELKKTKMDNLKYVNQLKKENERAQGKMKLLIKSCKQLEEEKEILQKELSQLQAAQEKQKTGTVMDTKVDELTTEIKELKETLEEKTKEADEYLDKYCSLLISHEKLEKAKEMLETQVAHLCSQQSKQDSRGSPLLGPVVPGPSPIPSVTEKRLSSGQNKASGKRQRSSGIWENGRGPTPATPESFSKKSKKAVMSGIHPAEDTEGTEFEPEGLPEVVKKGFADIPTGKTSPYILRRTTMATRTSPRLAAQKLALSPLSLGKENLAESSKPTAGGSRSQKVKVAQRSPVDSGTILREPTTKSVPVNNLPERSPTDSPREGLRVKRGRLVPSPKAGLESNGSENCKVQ
UniProt Q7L3B6: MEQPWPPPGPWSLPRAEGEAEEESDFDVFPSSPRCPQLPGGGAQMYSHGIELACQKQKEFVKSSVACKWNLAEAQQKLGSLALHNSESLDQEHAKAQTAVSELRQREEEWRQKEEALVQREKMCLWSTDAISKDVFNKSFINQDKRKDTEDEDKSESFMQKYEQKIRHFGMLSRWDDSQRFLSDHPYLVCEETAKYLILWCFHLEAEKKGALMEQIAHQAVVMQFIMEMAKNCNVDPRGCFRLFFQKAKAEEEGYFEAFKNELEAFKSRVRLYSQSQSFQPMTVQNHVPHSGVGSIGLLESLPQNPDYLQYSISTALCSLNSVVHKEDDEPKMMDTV
UniProt P30260, whole entry, looked up: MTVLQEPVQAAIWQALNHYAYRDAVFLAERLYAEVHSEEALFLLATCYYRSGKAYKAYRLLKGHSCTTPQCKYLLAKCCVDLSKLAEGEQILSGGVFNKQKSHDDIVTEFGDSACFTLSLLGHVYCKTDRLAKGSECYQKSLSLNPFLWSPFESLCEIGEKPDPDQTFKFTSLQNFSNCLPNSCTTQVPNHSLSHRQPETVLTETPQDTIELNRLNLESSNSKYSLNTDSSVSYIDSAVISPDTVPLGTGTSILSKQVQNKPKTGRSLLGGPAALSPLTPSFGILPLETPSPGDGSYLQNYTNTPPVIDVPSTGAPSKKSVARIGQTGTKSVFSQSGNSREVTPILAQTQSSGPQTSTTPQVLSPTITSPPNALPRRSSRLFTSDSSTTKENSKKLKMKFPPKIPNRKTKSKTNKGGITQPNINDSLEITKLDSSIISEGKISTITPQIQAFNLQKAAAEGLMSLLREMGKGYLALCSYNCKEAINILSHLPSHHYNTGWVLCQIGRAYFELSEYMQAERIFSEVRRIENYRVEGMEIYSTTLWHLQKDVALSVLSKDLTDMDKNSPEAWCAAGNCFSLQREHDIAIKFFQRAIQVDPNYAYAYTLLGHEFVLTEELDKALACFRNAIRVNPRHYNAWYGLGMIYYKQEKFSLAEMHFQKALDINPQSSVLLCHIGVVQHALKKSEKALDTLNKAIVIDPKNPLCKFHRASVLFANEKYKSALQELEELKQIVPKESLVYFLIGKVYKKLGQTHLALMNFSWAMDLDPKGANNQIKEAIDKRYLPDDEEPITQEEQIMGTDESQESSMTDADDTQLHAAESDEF
UniProt Q6P2H3: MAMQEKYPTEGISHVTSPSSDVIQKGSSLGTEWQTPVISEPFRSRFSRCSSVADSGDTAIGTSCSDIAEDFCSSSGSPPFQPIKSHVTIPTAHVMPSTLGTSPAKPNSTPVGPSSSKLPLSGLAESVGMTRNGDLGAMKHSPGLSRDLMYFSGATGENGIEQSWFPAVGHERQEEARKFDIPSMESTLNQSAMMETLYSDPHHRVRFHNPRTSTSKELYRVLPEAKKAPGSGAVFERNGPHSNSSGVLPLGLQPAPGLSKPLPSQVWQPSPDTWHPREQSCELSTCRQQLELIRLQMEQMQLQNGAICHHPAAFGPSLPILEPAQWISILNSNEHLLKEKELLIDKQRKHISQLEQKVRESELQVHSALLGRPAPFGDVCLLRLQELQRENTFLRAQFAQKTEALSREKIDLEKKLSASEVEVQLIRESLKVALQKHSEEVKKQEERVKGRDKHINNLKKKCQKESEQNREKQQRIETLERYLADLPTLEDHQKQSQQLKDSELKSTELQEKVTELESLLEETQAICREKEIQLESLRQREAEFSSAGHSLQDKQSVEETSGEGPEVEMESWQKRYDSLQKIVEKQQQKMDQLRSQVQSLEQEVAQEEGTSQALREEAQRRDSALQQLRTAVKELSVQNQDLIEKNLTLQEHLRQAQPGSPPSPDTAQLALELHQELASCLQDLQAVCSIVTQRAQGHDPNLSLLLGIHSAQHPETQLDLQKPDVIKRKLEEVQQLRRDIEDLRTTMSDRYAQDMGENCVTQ
UniProt Q96JB5: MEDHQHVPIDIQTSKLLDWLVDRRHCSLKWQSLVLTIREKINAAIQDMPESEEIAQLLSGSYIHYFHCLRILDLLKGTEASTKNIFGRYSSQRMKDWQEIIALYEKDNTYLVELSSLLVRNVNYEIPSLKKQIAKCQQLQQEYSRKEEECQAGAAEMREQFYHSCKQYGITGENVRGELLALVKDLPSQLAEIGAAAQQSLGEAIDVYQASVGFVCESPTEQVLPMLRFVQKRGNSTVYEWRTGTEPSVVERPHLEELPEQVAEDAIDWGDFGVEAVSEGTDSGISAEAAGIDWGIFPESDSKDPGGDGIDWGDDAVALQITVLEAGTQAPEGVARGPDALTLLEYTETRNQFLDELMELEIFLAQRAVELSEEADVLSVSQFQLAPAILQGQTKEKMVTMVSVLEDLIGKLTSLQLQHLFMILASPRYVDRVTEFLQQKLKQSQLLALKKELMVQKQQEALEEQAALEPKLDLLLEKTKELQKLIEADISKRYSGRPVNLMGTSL
UniProt P50991: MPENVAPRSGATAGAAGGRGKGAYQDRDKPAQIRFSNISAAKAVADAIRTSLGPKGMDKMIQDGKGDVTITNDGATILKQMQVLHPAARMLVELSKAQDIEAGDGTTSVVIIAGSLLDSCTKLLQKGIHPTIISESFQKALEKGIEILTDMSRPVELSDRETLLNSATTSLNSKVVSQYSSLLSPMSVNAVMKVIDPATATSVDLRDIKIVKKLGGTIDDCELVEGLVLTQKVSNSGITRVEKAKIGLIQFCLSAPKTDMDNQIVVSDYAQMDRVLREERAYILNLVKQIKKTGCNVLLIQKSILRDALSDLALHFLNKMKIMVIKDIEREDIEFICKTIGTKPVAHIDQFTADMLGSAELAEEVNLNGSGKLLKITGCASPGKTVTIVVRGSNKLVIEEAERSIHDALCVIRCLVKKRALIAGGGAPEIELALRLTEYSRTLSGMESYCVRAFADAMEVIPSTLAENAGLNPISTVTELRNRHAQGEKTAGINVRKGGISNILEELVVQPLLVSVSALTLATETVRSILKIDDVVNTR
UniProt Q9NRR8: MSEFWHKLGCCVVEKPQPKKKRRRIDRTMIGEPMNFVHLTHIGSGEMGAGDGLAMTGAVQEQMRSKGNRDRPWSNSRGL

compound: CC1Cc2ccccc2N1C(=O)C1CCCN(C1)C(=O)CCl (mixture of isomers) [TRIM25 ligand 11 (diastereomer mixture)]; experiment: probe-labelled cysteine peptide fold change vs DMSO (competition) (log2 fold change); higher = less target engagement (more negative = stronger competition); settings: 50 µM; THP-1; incubation time: 4 h
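Further: competitive chemoproteomic profiling in live THP-1 cells with an iodoacetamide desthiobiotin (IA-DTB) probe, comparing probe-labelled peptide intensities in compound-treated cells against DMSO-treated controls.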

| Target | probe-labelled cysteine peptide fold change |
| --- | --- |
| CCT8_P50990_136_IGLSVSEVIEGYEIACR (UniProt P50990) | 0.0308 |
| CENPH_Q9H3R5_35_AGGPPQVAGAQAACSEDR (UniProt Q9H3R5) | -0.0667 |
| CDC40_O60508_553_VCIGAVWHPHETSK (UniProt O60508) | -0.0128 |
| CELF2_O95319_161_VMFSPFGQIEECR (UniProt O95319) | -0.00434 |
| CDC23_Q9UJX2_324_SELSYLAHNLCEIDK (UniProt Q9UJX2) | 0.0288 |
| CENPF_P49454_2776_SLDCMHK (UniProt P49454) | 0.0416 |
| CEP131_Q9UPN4_218_AATCEGSESSGFGK (UniProt Q9UPN4) | -0.156 |
| CDCA7L_Q96GN5_383_GQFCGPCLR (UniProt Q96GN5) | -0.036 |
| CD97_P48960_256_DTVCEDMTFSTWTPPPGVHSQTLSR (UniProt P48960) | -0.0929 |
| CDC37L1_Q7L3B6_190_FLSDHPYLVCEETAK (UniProt Q7L3B6) | 0.0315 |
| CDC73_Q6P1J9_145_IEDEECVRLDK (UniProt Q6P1J9) | -0.274 |
| CCT8_P50990_148+149_KAHEILPNLVCCSAK (UniProt P50990) | -0.0657 |
| CERCAM_Q5T4B2_391_GEVGCFLSHYSIWEEVVAR (UniProt Q5T4B2) | 0.041 |
| CDC27_P30260_115+126_SHDDIVTEFGDSACFTLSLLGHVYCK (UniProt P30260) | 0.036 |
| CENPF_P49454_1233_ECLQHELQTIR (UniProt P49454) | 0.0395 |
| CCT8_P50990_136_IGLSVSEVIEGYEIACRK (UniProt P50990) | 0.122 |
| CDC27_P30260_673_ALDINPQSSVLLCHIGVVQHALKK (UniProt P30260) | -0.0276 |
| CEP97_Q8IW35_484_AGLLPCPEPTIISAILK (UniProt Q8IW35) | -0.303 |
| CEP85_Q6P2H3_527_VTELESLLEETQAICR (UniProt Q6P2H3) | 0.122 |

Copied from the list.
For probe-labelled cysteine peptide fold change, CDC37L1_Q7L3B6_190_FLSDHPYLVCEETAK (UniProt Q7L3B6) has the entry 0.0315
For probe-labelled cysteine peptide fold change, CENPF_P49454_2776_SLDCMHK (UniProt P49454) has the entry 0.0416
For probe-labelled cysteine peptide fold change, CENPH_Q9H3R5_35_AGGPPQVAGAQAACSEDR (UniProt Q9H3R5) has the entry -0.0667

(next part)

| Target | probe-labelled cysteine peptide fold change |
| --- | --- |
| CEP76_Q8TAP6_414_GVPHAWVMTCGTDGAITFWESLTGHR (UniProt Q8TAP6) | -0.123 |
| CEP290_O15078_998_TSNLEHLECENISLK (UniProt O15078) | 0.0276 |
| CDC27_P30260_481_GYLALCSYNCK (UniProt P30260) | 0.21 |
| CDK5RAP3_Q96JB5_150_KEEECQAGAAEMR (UniProt Q96JB5) | -0.132 |
| CEP85_Q6P2H3_380_PAPFGDVCLLR (UniProt Q6P2H3) | 0.0929 |
| CDK5RAP3_Q96JB5_165_EQFYHSCK (UniProt Q96JB5) | -0.0693 |
| CENPF_P49454_503_EVCHLEAELK (UniProt P49454) | 0.141 |
| CENPF_P49454_1426_ILHDQHCQMSSK (UniProt P49454) | -0.0992 |
| CELF1_Q92879_119_KCTENDIR (UniProt Q92879) | 0.0502 |
| CCT4_P50991_337_DIEREDIEFICK (UniProt P50991) | 0.163 |
| CDK8_P49336_25_VEDLFEYEGCK (UniProt P49336) | -0.167 |
| CDC16_Q13042_544_CYDFDVHTMK (UniProt Q13042) | -0.0934 |
| CDK5_Q00535_83_LTLVFEFCDQDLK (UniProt Q00535) | -0.0385 |
| CDC42SE1_Q9NRR8_11_LGCCVVEKPQPK (UniProt Q9NRR8) | -0.137 |
| CCT4_P50991_295_KTGCNVLLIQK (UniProt P50991) | 0.021 |
| CEP192_Q8TEP8_1828_LTSNCEIR (UniProt Q8TEP8) | 0.0772 |
| CDC25C_P30307_42_DTSFTVCPDVPR (UniProt P30307) | -0.293 |
| CD70_P32970_17_RRPYGCVLR (UniProt P32970) | 0.0199 |
| CEBPZ_Q03701_374_ALTVAHELLCNKPEEEK (UniProt Q03701) | -0.0993 |
